# Source: the supplement of paper PMC8728848
# Some of the results follow.
# Columns and labels:
# Experiment in all cases: glycan array binding signal (z-score within array); higher = stronger binding
# Conditions in all cases: glycan notation: IUPAC condensed, linker removed
# [1] = target: Fuc(a1-2)Gal(b1-4)GlcNAc(b1-3)Gal(b1-4)GlcNAc(b1-2)Man(a1-3)[Fuc(a1-2)Gal(b1-4)GlcNAc(b1-3)Gal(b1-4)GlcNAc(b1-2)Man(a1-6)]Man(b1-4)GlcNAc(b1-4)GlcNAc
# Outline: (§1)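 Glycan array data came from 3228 arrays in the Consortium for Functional Glycomics database, and only arrays with an available protein sequence were kept. Glycan names were put into IUPAC-condensed notation, and columns mapping to the same glycan were averaged. The binding signal is a within-array Z-score, averaged across arrays of one protein sequence run at different concentrations or buffers and across linkers. A negative Z-score can be read as non-binding.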
# [2] = target: Fuc(a1-2)Gal(b1-4)GlcNAc(b1-3)Gal(b1-4)GlcNAc(b1-3)Gal(b1-4)GlcNAc
# Outline: as §1
# [3] = target: Fuc(a1-2)Gal(b1-4)GlcNAc(b1-3)GalNAc
# Outline: as §1
# [4] = target: Fuc(a1-2)Gal(b1-4)GlcNAc(b1-3)[Fuc(a1-2)Gal(b1-4)GlcNAc(b1-6)]GalNAc
# Outline: as §1
# [5] = target: Fuc(a1-2)Gal(b1-4)GlcNAc(b1-3)[Fuc(a1-3)[Gal(b1-4)]GlcNAc(b1-6)]Gal(b1-4)Glc
# Outline: as §1
# [6] = target: Fuc(a1-2)Gal(b1-4)GlcNAc(b1-6)GalNAc
# Outline: as §1
# [7] = target: Fuc(a1-2)Gal(b1-4)GlcNAc6S
# Outline: as §1
# [8] = target: Fuc(a1-2)Gal(b1-4)[Fuc(a1-3)]GlcNAc
# Outline: as §1
# [9] = target: Fuc(a1-2)Gal(b1-4)[Fuc(a1-3)]GlcNAc(b1-2)Man(a1-3)[Fuc(a1-2)Gal(b1-4)[Fuc(a1-3)]GlcNAc(b1-2)Man(a1-6)]Man(b1-4)GlcNAc(b1-4)[Fuc(a1-6)]GlcNAc
# Outline: as §1
# [10] = target: Fuc(a1-2)Gal(b1-4)[Fuc(a1-3)]GlcNAc(b1-2)[Fuc(a1-2)Gal(b1-4)[Fuc(a1-3)]GlcNAc(b1-4)]Man(a1-3)[Fuc(a1-2)Gal(b1-4)[Fuc(a1-3)]GlcNAc(b1-2)Man(a1-6)]Man(b1-4)GlcNAc(b1-4)GlcNAc
# Outline: as §1
# [11] = target: Fuc(a1-2)Gal(b1-4)[Fuc(a1-3)]GlcNAc(b1-3)Gal(b1-4)[Fuc(a1-3)]GlcNAc
# Outline: as §1
# [12] = target: Fuc(a1-2)Gal(b1-4)[Fuc(a1-3)]GlcNAc(b1-3)Gal(b1-4)[Fuc(a1-3)]GlcNAc(b1-3)Gal(b1-4)[Fuc(a1-3)]GlcNAc
# Outline: as §1
# [13] = target: Fuc(a1-2)Gal(b1-4)[Fuc(a1-3)]GlcNAc(b1-3)GalNAc
# Outline: as §1
# [14] = target: Fuc(a1-2)Gal(b1-4)[Fuc(a1-3)]GlcNAc(b1-3)[Neu5Ac(a2-6)Gal(b1-4)GlcNAc(b1-6)]Gal(b1-4)Glc
# Outline: as §1
# [15] = target: Fuc(a1-2)Gal3S(b1-4)GlcNAc
# Outline: as §1
# [16] = target: Fuc(a1-2)Gal6S(b1-3)GlcNAc
# Outline: as §1
# [17] = target: Fuc(a1-2)Gal6S(b1-3)GlcNAc6S
# Outline: as §1
# [18] = target: Fuc(a1-2)Gal6S(b1-4)Glc
# Outline: as §1
# [19] = target: Fuc(a1-2)Gal6S(b1-4)Glc6S
# Outline: as §1
# [20] = target: Fuc(a1-2)[Gal(a1-3)]Gal
# Outline: as §1
# [21] = target: Fuc(a1-2)[Gal(a1-3)]Gal(b1-3)GalNAc
# Outline: as §1
# [22] = target: Fuc(a1-2)[Gal(a1-3)]Gal(b1-3)GalNAc(b1-3)Gal(a1-4)Gal(b1-4)Glc
# Outline: as §1
# [23] = target: Fuc(a1-2)[Gal(a1-3)]Gal(b1-3)GlcNAc
# Outline: as §1
# [24] = target: Fuc(a1-2)[Gal(a1-3)]Gal(b1-3)GlcNAc(b1-2)Man(a1-3)[Fuc(a1-2)[Gal(a1-3)]Gal(b1-3)GlcNAc(b1-2)Man(a1-6)]Man(b1-4)GlcNAc(b1-4)GlcNAc
# Outline: as §1
# [25] = target: Fuc(a1-2)[Gal(a1-3)]Gal(b1-3)GlcNAc(b1-2)Man(a1-3)[Fuc(a1-2)[Gal(a1-3)]Gal(b1-3)GlcNAc(b1-2)Man(a1-6)]Man(b1-4)GlcNAc(b1-4)[Fuc(a1-6)]GlcNAc
# Outline: as §1
# [26] = target: Fuc(a1-2)[Gal(a1-3)]Gal(b1-3)GlcNAc(b1-3)GalNAc
# Outline: as §1
# [27] = target: Fuc(a1-2)[Gal(a1-3)]Gal(b1-3)GlcNAc(b1-6)GalNAc
# Outline: as §1
# [28] = target: Fuc(a1-2)[Gal(a1-3)]Gal(b1-4)Glc
# Outline: as §1
# [29] = target: Fuc(a1-2)[Gal(a1-3)]Gal(b1-4)GlcNAc
# Outline: as §1
# [30] = target: Fuc(a1-2)[Gal(a1-3)]Gal(b1-4)GlcNAc(b1-2)Man
# Outline: as §1
binder,measurement,setting,value
"AT3G09350(27) (Arabidopsis thaliana), Q84J81 (protein) MAKDGPNWDGLLKWSLSHADGTRPTRQLSEEDRKWFMEAMQSQTVDVVKRMKEITLVMQTPEQVLVEHGVTPEDIQDLLDELQEHVESIDMANDLHSIGGLVPLLSFLKNSHANIRAKAADVVSTIVQNNPRSQELVMETNALESLLSNFTSDTDIHARTQALGAISSLIRHNKPGVTAFKLANGYAGLRDALASDSVRFQRKALNLLQYLLQEDDSDRSIATGLGFPRVMMHLASSDDAEIREAALRGLLELSREKNDGSSSIDKSDEKLRQLLEERIKGITLMSQEDLETVKEERQLVDLLWSICYNEPSSLREKGLVVLPGEDALPPDVASKLFEPPLRASAANRNATEKKDEPMKLLGP",glycan array binding signal (z-score),[1],-0.726
same,glycan array binding signal (z-score),[2],1
same,glycan array binding signal (z-score),[3],-0.428
same,glycan array binding signal (z-score),[4],-0.175
same,glycan array binding signal (z-score),[5],-0.595
same,glycan array binding signal (z-score),[6],0.775
same,glycan array binding signal (z-score),[7],-0.054
same,glycan array binding signal (z-score),[8],-0.03
same,glycan array binding signal (z-score),[9],-0.237
same,glycan array binding signal (z-score),[10],-0.537
same,glycan array binding signal (z-score),[11],-0.529
same,glycan array binding signal (z-score),[12],0.234
same,glycan array binding signal (z-score),[13],-0.134
same,glycan array binding signal (z-score),[14],-0.772
same,glycan array binding signal (z-score),[15],-0.997
same,glycan array binding signal (z-score),[16],-0.161
same,glycan array binding signal (z-score),[17],0.172
same,glycan array binding signal (z-score),[18],-0.518
same,glycan array binding signal (z-score),[19],-0.315
same,glycan array binding signal (z-score),[20],1.22
same,glycan array binding signal (z-score),[21],-0.403
same,glycan array binding signal (z-score),[22],-0.597
same,glycan array binding signal (z-score),[23],-0.327
same,glycan array binding signal (z-score),[24],-0.69
same,glycan array binding signal (z-score),[25],0.226
same,glycan array binding signal (z-score),[26],-0.33
same,glycan array binding signal (z-score),[27],-0.699
same,glycan array binding signal (z-score),[28],2.16
same,glycan array binding signal (z-score),[29],0.614
same,glycan array binding signal (z-score),[30],-0.155

# For reference, some entries already given:
binder,measurement,setting,value
"AT3G09350(27) (Arabidopsis thaliana), Q84J81 (protein) MAKDGPNWDGLLKWSLSHADGTRPTRQLSEEDRKWFMEAMQSQTVDVVKRMKEITLVMQTPEQVLVEHGVTPEDIQDLLDELQEHVESIDMANDLHSIGGLVPLLSFLKNSHANIRAKAADVVSTIVQNNPRSQELVMETNALESLLSNFTSDTDIHARTQALGAISSLIRHNKPGVTAFKLANGYAGLRDALASDSVRFQRKALNLLQYLLQEDDSDRSIATGLGFPRVMMHLASSDDAEIREAALRGLLELSREKNDGSSSIDKSDEKLRQLLEERIKGITLMSQEDLETVKEERQLVDLLWSICYNEPSSLREKGLVVLPGEDALPPDVASKLFEPPLRASAANRNATEKKDEPMKLLGP",glycan array binding signal (z-score),[8],-0.03
same,glycan array binding signal (z-score),[9],-0.237
